According to patent US20170215422A1, “NOVEL CYCLIC DEPSIPEPTIDE DERIVATIVES AND HARMFUL ORGANISM CONTROL AGENTS COMPRISING THE SAME” (priority 2012, published 2017):
Some entries share one result that the patent states for a list of compounds.

Key:
Assay type in all cases: in vivo
Plutella xylostella = test: Pesticidal effect against Plutella xylostella (cabbage leaf disk); settings: spreading treatment of 100 ppm; second instar larvae; 3 days
Aphis gossypii = test: Pesticidal effect against Aphis gossypii (cucumber leaf disk); settings: first instar larvae, 3 days
[1] = system: Frankliniella occidentalis; test: Pesticidal effect against Frankliniella occidentalis (kidney bean leaf disk); settings: first instar larvae, 6 days
[2] = system: Trialeurodes vaporariorum; test: Pesticidal effect against Trialeurodes vaporariorum (cucumber leaf disk with eggs); settings: 14 days
[3] = system: Trigonotylus caelestialium; test: Pesticidal effect against Trigonotylus caelestialium (wheat seedling dipping); settings: dipping treatment of 50 ppm; second instar larvae; 4 days
Aculops lycopersici = test: Miticidal effect against Aculops lycopersici (potted tomato spray); settings: spreading treatment of 10 ppm; 3 days
[4] = system: Nippostrongylus brasiliensis; test: Anthelminticidal effect against mature larvae of Nippostrongylus brasiliensis (test in mice); settings: 50 mg/kg orally once to infected mouse; 3 days after administration
Rhopalosiphum padi = test: Pesticidal effect against Rhopalosiphum padi (wheat root dipping); settings: dipping treatment of 100 ppm; second instar larvae; 3 days
Tetranychus cinnabarinus = test: Miticidal effect against Tetranychus cinnabarinus (eggs on kidney bean leaf pieces); settings: dipping treatment of 100 ppm; 6 days
[5] = system: egg of Tetranychus uruticae (susceptible strain); test: Ovicidal effect against egg of Tetranychus uruticae (susceptible strain); settings: dipping treatment of 10 ppm, eggs, 7 days
Description: <Miticidal Effect Against Two-Spotted Spider Mite (Susceptible Strain)>
(§1) A leaf disk having a diameter of 2.0 cm was cut out from a kidney bean grown in a pot. The leaf disk was inoculated with seven female adult of Tetranychus uruticae, followed by laying in a thermostatic chamber (25° C.). After the elapse of 24 hr, female adults were removed from the leaf disk. The foliage was treated with a chemical solution adjusted to a 50% aqueous acetone solution (0.05% Tween 20 added) containing a compound of the present invention at a predetermined concentration. The foliage was then air-dried and was allowed to stand in a thermostatic chamber (light period 16 hr-dark period 8 hr) (25° C.). Seven days after the chemical solution treatment, the number of remaining eggs and the number of dead mites were counted, and the ovicidal/miticidal rate was calculated by the following equation.
(§2) Ovicidal/miticidal rate (%)={(number of remaining eggs+number of dead mites)/(number of remaining eggs+number of dead mites+number of survived insects)}×100

[6] = system: adult of drug-resistant Tetranychus uruticae; test: Miticidal effect against adult of drug-resistant Tetranychus uruticae; settings: foliage treatment of 10 ppm; adults, drug-resistant strain; 4 days
[7] = system: egg of drug-resistant Tetranychus uruticae; test: Ovicidal effect against egg of drug-resistant Tetranychus uruticae; settings: foliage treatment of 10 ppm; eggs, drug-resistant strain; 7 days
Description: <Miticidal Effect Against Two-Spotted Spider Mite (Drug-Resistant Strain)>
as §1, with “adult of drug-resistant Tetranychus uruticae,” for “adult of Tetranychus uruticae,”
as §2

[8] = system: egg of Tetranychus kanzawai; test: Ovicidal effect against egg of Tetranychus kanzawai; settings: foliage treatment of 2.5 ppm; eggs; 7 days
[9] = system: adult of Tetranychus uruticae (susceptible strain); test: Miticidal effect against adult of Tetranychus uruticae (susceptible strain); settings: foliage treatment of 10 ppm, adults, 4 days

Structure (SMILES) | death rate (Aphis gossypii; spreading treatment of 5 ppm) | death rate ([1]; foliage treatment of 100 ppm) | death rate ([2]; foliage treatment of 10 ppm) | death rate [3] | death rate (Aphis gossypii; foliage treatment of 20 ppm) | other results
CCCCCCC1OC(=O)CN(C)C(=O)C(CCCCC)OC(=O)C(C)N(C)C(=O)C(CCCCC)OC(=O)C(C)N(C)C(=O)C(CCCCC)OC(=O)C(C)N(C)C1=O [Compound 2, Cycro(-N-Me-L-Gly-(R)-Oct-N-Me-L-Ala-(R)Hep-N-Me-L-Ala-(R)-Hep-N-Me-L-Ala-(R)-Hep-)] | not less than 80% | not less than 80% | not less than 80% | not less than 80% |  | death rate (Plutella xylostella): not less than 80%; death rate ([1]; spreading treatment of 5 ppm): not less than 80%
CCCCCCCC1OC(=O)CN(C)C(=O)C(CCCCC)OC(=O)C(C)N(C)C(=O)C(CCCCC)OC(=O)C(C)N(C)C(=O)C(CCCCC)OC(=O)C(C)N(C)C1=O (stereo not shown) [Compound 3] |  | not less than 80% | not less than 80% |  | not less than 80% | death rate (Plutella xylostella): not less than 80%; death rate ([1]; spreading treatment of 5 ppm): not less than 80%; death rate ([2]; spreading treatment of 100 ppm): not less than 80%; death rate (Aculops lycopersici): not less than 80%
CCCCCCCCC1OC(=O)CN(C)C(=O)C(CCCCC)OC(=O)C(C)N(C)C(=O)C(CCCCC)OC(=O)C(C)N(C)C(=O)C(CCCCC)OC(=O)C(C)N(C)C1=O (stereo not shown) [Compound 4] |  |  |  |  | not less than 80% | anthelmintic rate [4]: not less than 70%
CCCCCC1OC(=O)C(C)N(C)C(=O)C(CCCCC)OC(=O)C(CC)N(C)C(=O)C(CCCCC)OC(=O)C(C)N(C)C(=O)C(CCCCC)OC(=O)C(C)N(C)C1=O (stereo not shown) [Compound 10] |  | not less than 80% | not less than 80% |  | not less than 80% | death rate ([2]; spreading treatment of 100 ppm): not less than 80%; anthelmintic rate [4]: not less than 70%
CCCCCCCC1OC(=O)C(CCC)N(C)C(=O)C(CCCCC)OC(=O)C(C)N(C)C(=O)C(CCCCC)OC(=O)C(C)N(C)C(=O)C(CCCCC)OC(=O)C(C)N(C)C1=O (stereo not shown) [Compound 21] |  | not less than 80% | not less than 80% | not less than 80% | not less than 80% | death rate ([2]; spreading treatment of 100 ppm): not less than 80%; anthelmintic rate [4]: not less than 70%
CCCCCCCC1OC(=O)C(CC(C)C)N(C)C(=O)C(CCCCC)OC(=O)CN(C)C(=O)C(CCCCC)OC(=O)CN(C)C(=O)C(CCCCC)OC(=O)CN(C)C1=O (stereo not shown) [Compound 32] | not less than 80% |  | not less than 80% | not less than 80% |  | death rate (Plutella xylostella): not less than 80%; death rate (Aculops lycopersici): not less than 80%
CCCCCC1OC(=O)CN(C)C(=O)C(CCCCC)OC(=O)C(CC(C)C)N(C)C(=O)C(CCCCC)OC(=O)CN(C)C(=O)C(CCCCC)OC(=O)CN(C)C1=O (stereo not shown) [Compound 34] | not less than 80% |  | not less than 80% | not less than 80% |  | death rate (Plutella xylostella): not less than 80%; death rate (Aculops lycopersici): not less than 80%
CCCCCC1OC(=O)C(CCC)N(C)C(=O)C(CCCCC)OC(=O)C(C)N(C)C(=O)C(CCCCC)OC(=O)C(CCC)N(C)C(=O)C(CCCCC)OC(=O)C(C)N(C)C1=O (stereo not shown) [Compound 38] |  | not less than 80% | not less than 80% |  |  | death rate (Rhopalosiphum padi): not less than 80%; death rate ([2]; foliage treatment of 20 ppm): not less than 80%
CCCCCC1OC(=O)C(CCCC)N(C)C(=O)C(CCCCC)OC(=O)C(C)N(C)C(=O)C(CCCCC)OC(=O)C(CCCC)N(C)C(=O)C(CCCCC)OC(=O)C(C)N(C)C1=O (stereo not shown) [Compound 39] |  |  | not less than 80% |  |  | death rate (Rhopalosiphum padi): not less than 80%; death rate ([2]; foliage treatment of 20 ppm): not less than 80%
CCCCCC1OC(=O)C(CC(C)C)N(C)C(=O)C(CCCCC)OC(=O)C(CCC)N(C)C(=O)C(CCCCC)OC(=O)C(CC(C)C)N(C)C(=O)C(CCCCC)OC(=O)C(CCC)N(C)C1=O (stereo not shown) [Compound 41] |  |  | not less than 80% |  | not less than 80% | death rate (Rhopalosiphum padi): not less than 80%; death rate ([2]; foliage treatment of 20 ppm): not less than 80%; ovicidal/miticidal rate (Tetranychus cinnabarinus): not less than 80%; death rate (Aculops lycopersici): not less than 80%
CCCCCC1OC(=O)C(CCC)N(C)C(=O)C(CCCCC)OC(=O)C(CCC)N(C)C(=O)C(CCCCC)OC(=O)C(CCC)N(C)C(=O)C(CCCCC)OC(=O)C(CCC)N(C)C1=O (stereo not shown) [Compound 45] |  | not less than 80% | not less than 80% |  |  | death rate ([2]; foliage treatment of 20 ppm): not less than 80%; ovicidal/miticidal rate (Tetranychus cinnabarinus): not less than 80%
CCCCC[C@H]1OC(=O)CN(C)C(=O)[C@@H](CCCCC)OC(=O)[C@H](CC(C)C)N(C)C(=O)[C@@H](CCCCC)OC(=O)[C@H](CC(C)C)N(C)C(=O)[C@@H](CCCCC)OC(=O)CN(C)C1=O [Compound 47, Cycro(-N-Me-L-Gly-(R)-Hep-N-Me-L-Gly-(R)-Hep-N-Me-L-Leu-(R)-Hep-N-Me-L-Leu-(R)-Hep-)] |  | not less than 80% | not less than 80% | not less than 80% | not less than 80% | death rate (Plutella xylostella): not less than 80%; death rate (Aculops lycopersici): not less than 80%
CCCCCC1OC(=O)C(CC(C)C)N(C)C(=O)C(CCCCC)OC(=O)C(CC(C)C)N(C)C(=O)C(CCCCC)OC(=O)C(CC(C)C)N(C)C(=O)C(CCCCC)OC(=O)C(CCC)N(C)C1=O (stereo not shown) [Compound 56] |  |  | not less than 80% |  | not less than 80% | ovicidal/miticidal rate [5]: not less than 80%; miticidal rate [6]: not less than 80%; ovicidal/miticidal rate [7]: not less than 80%; ovicidal/miticidal rate [8]: not less than 80%
CCCCCC1OC(=O)C(CC(C)C)N(C)C(=O)C(CCCCC)OC(=O)C(CC(C)C)N(C)C(=O)C(CCCCC)OC(=O)C(CCC)N(C)C(=O)C(CCCCC)OC(=O)CN(C)C1=O (stereo not shown) [Compound 57] | not less than 80% |  | not less than 80% | not less than 80% |  | death rate ([2]; spreading treatment of 100 ppm): not less than 80%; miticidal rate [9]: not less than 80%; ovicidal/miticidal rate [5]: not less than 80%
CCCCCC1OC(=O)C(CC(C)C)N(C)C(=O)C(CCCCC)OC(=O)C(CCC)N(C)C(=O)C(CCCCC)OC(=O)C(CCC)N(C)C(=O)C(CCCCC)OC(=O)CN(C)C1=O (stereo not shown) [Compound 60] | not less than 80% |  |  |  |  | miticidal rate [9]: not less than 80%; ovicidal/miticidal rate [5]: not less than 80%
CCCCCC1OC(=O)C(CCC)N(C)C(=O)C(CCCCC)OC(=O)C(CCC)N(C)C(=O)C(CCCCC)OC(=O)C(CCC)N(C)C(=O)C(CCCCC)OC(=O)CN(C)C1=O (stereo not shown) [Compound 67] | not less than 80% |  | not less than 80% | not less than 80% | not less than 80% | death rate ([2]; spreading treatment of 100 ppm): not less than 80%; miticidal rate [9]: not less than 80%
CCCCCC1OC(=O)C(CCC)N(C)C(=O)C(CCCCC)OC(=O)C(CCC)N(C)C(=O)C(CCCCC)OC(=O)C(CC2CCCCC2)N(C)C(=O)C(CCCCC)OC(=O)C(CCC)N(C)C1=O (stereo not shown) [Compound 69] |  |  |  |  |  | miticidal rate [9]: not less than 80%; ovicidal/miticidal rate [5]: not less than 80%
